According to US20160369008A1:
Results are given in words; binding and its absence hold for the method and conditions named. Some entries that bind do so weakly or less than the wild type.

By UniProt entry, the sequences of proteins in these tests, tags left out. Where a name states a change or a piece, a line headed by the entry shows the natural chain unless it says otherwise.
UniProt P04004: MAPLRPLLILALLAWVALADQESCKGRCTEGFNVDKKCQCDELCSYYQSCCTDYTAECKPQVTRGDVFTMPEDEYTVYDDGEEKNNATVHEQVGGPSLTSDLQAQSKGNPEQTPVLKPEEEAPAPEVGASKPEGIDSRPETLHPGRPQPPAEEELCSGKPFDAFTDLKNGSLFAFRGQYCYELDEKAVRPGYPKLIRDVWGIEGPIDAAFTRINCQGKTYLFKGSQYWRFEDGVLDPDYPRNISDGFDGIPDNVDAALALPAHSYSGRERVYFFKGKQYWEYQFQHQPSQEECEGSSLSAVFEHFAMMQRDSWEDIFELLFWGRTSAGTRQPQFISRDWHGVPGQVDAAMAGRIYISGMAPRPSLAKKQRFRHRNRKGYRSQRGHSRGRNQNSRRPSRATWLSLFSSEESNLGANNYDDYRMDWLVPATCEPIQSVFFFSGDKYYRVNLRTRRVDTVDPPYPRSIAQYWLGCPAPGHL

Key:
[1] = target: T1, active human PAI-1 in complex with vitronectin (human) (UniProt P05121+P04004); experiment: ELISA, vitronectin-coated plate with active human PAI-1 added
[2] = target: T1, active human PAI-1 in complex with vitronectin (human); experiment: ELISA, VTN-PAI-1 complex on the plate
[3] = target: T1, active human PAI-1 in complex with vitronectin (human); experiment: ELISA of Example 6, told again in Example 11

binding [1] | binding [2] | binding [3] | Binder
binds |  |  | HOT-1 (chimeric antibody) (antibody, V domains shown) VH: EVQLVESGGGVVRPGGSLRLSCAASGFTFDDHGMTWVRQAPGKGLEWVSGINWNGARTVYADSVKGRFTISRDNAKNSLYLHLISLRAEDTALYHCARDRGLGLFDYWGQGTLVTVSS VL: DIQMTQSPSTLSASVGDRVTITCRASQSISSWLAWYQQKPGKVPKILIYKASRLESGVPSRISGSGSGTEFTLTISSLQPDDFATYYCQQYNGYSYTFGQGTKLEIKR
 | binds | binds | fully human HOT-1 (antibody, human IgG1, kappa, V domains shown) VH: EVQLVESGGGVVRPGGSLRLSCAASGFTFDDHGMTWVRQAPGKGLEWVSGINWNGARTVYADSVKGRFTISRDNAKNSLYLHLISLRAEDTALYHCARDRGLGLFDYWGQGTLVTVSS VL: DIQMTQSPSTLSASVGDRVTITCRASQSISSWLAWYQQKPGKVPKILIYKASRLESGVPSRISGSGSGTEFTLTISSLQPDDFATYYCQQYNGYSYTFGQGTKLEIKR
